Measurements from patent US20200222474A1, “COMPOSITIONS AND METHODS FOR INCREASING PHYTOCHEMICAL BIOAVAILABLITY AND BIOACTIVITY” (North Carolina State University, priority 2017, published 2020).
This continues a long series; more values of the same kind are listed elsewhere.

System: L. acidophilus NCFM
Assay: RNA-seq transcriptional analysis of L. acidophilus NCFM growing on plant glycosides
Type: cell-based, Lactobacillus acidophilus
[1] = LBA0160 Anaerobic ribonucleoside triphosphate reductase, COG F
[2] = LBA0197 Oligopeptide binding protein, COG E
[3] = LBA0198 Peptide binding protein, COG E
[4] = LBA0225 6-p-beta-glucosidase, COG G
[5] = LBA0227 Celiohiose-specific PTS IIC, COG G
[6] = LBA0228 Transcriptional regulator, COG G
[7] = LBA0455 Mannose-specific PTS system component IIC, COG G
[8] = LBA0456 Mannose-specific PTS system component IID, COG G
[9] = LBA0491 Cellobiose-specific PTS IIC, COG G
[10] = LBA0503 ABC transporter permease, COG G
[11] = LBA0606 PTS system arbutin-like IIBC component, COG G
[12] = LBA0609 PTS enzyme II ABC component, COG G
[13] = LBA0680 Glycogen branching enzyme, COG G
[14] = LBA0681 Glucose-1-phosphate adenylyltransferase, COG G
[15] = LBA0682 Glucose-1-phosphate adenylyltransferase, COG G
[16] = LBA0683 Glycogen synthase, COG G
[17] = LBA0685 Glycogen phosphorylase, COG G
[18] = LBA0686 Amylopullulanase, COG G
[19] = LBA0687 Phosphoglucomutase, COG G
[20] = LBA0724 Transcription antiterminator, COG G
[21] = LBA0726 Phospho-beta-galactosidase II, COG G
[22] = LBA0874 Phospho-beta-galactosidase I, COG G
[23] = LBA0875 Transcriptional regulator, COG G
[24] = LBA0876 Cellobiose-specific PTS IIC, COG G
[25] = LBA0877 Cellobiose-specific PTS IIA, COG G
[26] = LBA0986 Galactose mutarotase related ensyme, COG G
[27] = LBA1102 Transmembrane protein, COG G
[28] = LBA1400 Oligopeptide ABC transporter substrate binding protein, COG E
[29] = LBA1433 Dihydroxyacetone kinase, COG G
[30] = LBA1434 Dihydroxyacetone kinase, COG G

SMILES: OCc1ccccc1O[C@@H]1O[C@H](CO)[C@@H](O)[C@H](O)[C@H]1O [Salicin]
- Log2 differential normalized TPM ratio compared to glucose (LBA0146 PTS system HA, COG G): 1.6
- Log2 differential normalized TPM ratio compared to lactose (LBA0146 PTS system HA, COG G): 0.1
- Transcripts per million (rpm) (LBA0146 PTS system HA, COG G): 25.6 rpm
- Log2 differential normalized TPM ratio compared to glucose [1]: 1.7
- Log2 differential normalized TPM ratio compared to lactose [1]: 0.7
- Transcripts per million (rpm) [1]: 560.3 rpm
- Log2 differential normalized TPM ratio compared to glucose [2]: 1
- Log2 differential normalized TPM ratio compared to lactose [2]: 3.2
- Transcripts per million (rpm) [2]: 134.5 rpm
- Log2 differential normalized TPM ratio compared to glucose [3]: 0
- Log2 differential normalized TPM ratio compared to lactose [3]: 3
- Transcripts per million (rpm) [3]: 43.2 rpm
- Log2 differential normalized TPM ratio compared to glucose [4]: −0.1
- Log2 differential normalized TPM ratio compared to lactose [4]: 0.2
- Transcripts per million (rpm) [4]: 25.6 rpm
- Log2 differential normalized TPM ratio compared to glucose [5]: 0.9
- Log2 differential normalized TPM ratio compared to lactose [5]: 0.6
- Transcripts per million (rpm) [5]: 6.9 rpm
- Log2 differential normalized TPM ratio compared to glucose [6]: 0.1
- Log2 differential normalized TPM ratio compared to lactose [6]: 0
- Transcripts per million (rpm) [6]: 15.6 rpm
- Log2 differential normalized TPM ratio compared to glucose [7]: 1.8
- Log2 differential normalized TPM ratio compared to lactose [7]: 0.7
- Transcripts per million (rpm) [7]: 1007.8 rpm
- Log2 differential normalized TPM ratio compared to glucose [8]: 1.8
- Log2 differential normalized TPM ratio compared to lactose [8]: 0.7
- Transcripts per million (rpm) [8]: 1723.5 rpm
- Log2 differential normalized TPM ratio compared to glucose [9]: 1.5
- Log2 differential normalized TPM ratio compared to lactose [9]: −0.6
- Transcripts per million (rpm) [9]: 20.9 rpm
- Log2 differential normalized TPM ratio compared to glucose [10]: 2.1
- Log2 differential normalized TPM ratio compared to lactose [10]: 0.9
- Transcripts per million (rpm) [10]: 13.7 rpm
- Log2 differential normalized TPM ratio compared to glucose (LBA0505 Fructosidase, COG G): 1.9
- Log2 differential normalized TPM ratio compared to lactose (LBA0505 Fructosidase, COG G): 1
- Transcripts per million (rpm) (LBA0505 Fructosidase, COG G): 13.7 rpm
- Log2 differential normalized TPM ratio compared to glucose [11]: 2.5
- Log2 differential normalized TPM ratio compared to lactose [11]: 0.3
- Transcripts per million (rpm) [11]: 25.6 rpm
- Log2 differential normalized TPM ratio compared to glucose [12]: 2
- Log2 differential normalized TPM ratio compared to lactose [12]: 0.3
- Transcripts per million (rpm) [12]: 199.6 rpm
- Log2 differential normalized TPM ratio compared to glucose [13]: 0.7
- Log2 differential normalized TPM ratio compared to lactose [13]: −0.3
- Transcripts per million (rpm) [13]: 108.3 rpm
- Log2 differential normalized TPM ratio compared to glucose [14]: 1.8
- Log2 differential normalized TPM ratio compared to lactose [14]: −0.1
- Transcripts per million (rpm) [14]: 144.1 rpm
- Log2 differential normalized TPM ratio compared to glucose [15]: 2
- Log2 differential normalized TPM ratio compared to lactose [15]: 0.2
- Transcripts per million (rpm) [15]: 201.1 rpm
- Log2 differential normalized TPM ratio compared to glucose [16]: 2.2
- Log2 differential normalized TPM ratio compared to lactose [16]: 0.3
- Transcripts per million (rpm) [16]: 283.5 rpm
- Log2 differential normalized TPM ratio compared to glucose [17]: 2.4
- Log2 differential normalized TPM ratio compared to lactose [17]: 0.5
- Transcripts per million (rpm) [17]: 330.5 rpm
- Log2 differential normalized TPM ratio compared to glucose [18]: 2.4
- Log2 differential normalized TPM ratio compared to lactose [18]: 0.6
- Transcripts per million (rpm) [18]: 357.5 rpm
- Log2 differential normalized TPM ratio compared to glucose [19]: 1.7
- Log2 differential normalized TPM ratio compared to lactose [19]: 0
- Transcripts per million (rpm) [19]: 410.2 rpm
- Log2 differential normalized TPM ratio compared to glucose [20]: 5.3
- Log2 differential normalized TPM ratio compared to lactose [20]: 3.5
- Transcripts per million (rpm) [20]: 1214.5 rpm
- Log2 differential normalized TPM ratio compared to glucose (LBA0725 PTS EII system, COG G): 8.9
- Log2 differential normalized TPM ratio compared to lactose (LBA0725 PTS EII system, COG G): 6.2
- Transcripts per million (rpm) (LBA0725 PTS EII system, COG G): 902.9 rpm
- Log2 differential normalized TPM ratio compared to glucose [21]: 6.2
- Log2 differential normalized TPM ratio compared to lactose [21]: 3.5
- Transcripts per million (rpm) [21]: 1529.5 rpm
- Log2 differential normalized TPM ratio compared to glucose [22]: 0.9
- Log2 differential normalized TPM ratio compared to lactose [22]: −0.2
- Transcripts per million (rpm) [22]: 28.6 rpm
- Log2 differential normalized TPM ratio compared to glucose [23]: 1
- Log2 differential normalized TPM ratio compared to lactose [23]: 0.6
- Transcripts per million (rpm) [23]: 25 rpm
- Log2 differential normalized TPM ratio compared to glucose [24]: 2.4
- Log2 differential normalized TPM ratio compared to lactose [24]: −0.5
- Transcripts per million (rpm) [24]: 551. 7 rpm
- Log2 differential normalized TPM ratio compared to glucose [25]: 2.6
- Log2 differential normalized TPM ratio compared to lactose [25]: −0.5
- Transcripts per million (rpm) [25]: 369.8 rpm
- Log2 differential normalized TPM ratio compared to glucose (LBA0911 Aminopeptidase, COG E): 1.2
- Log2 differential normalized TPM ratio compared to lactose (LBA0911 Aminopeptidase, COG E): 0
- Transcripts per million (rpm) (LBA0911 Aminopeptidase, COG E): 3872 rpm
- Log2 differential normalized TPM ratio compared to glucose [26]: 1.3
- Log2 differential normalized TPM ratio compared to lactose [26]: 0.7
- Transcripts per million (rpm) [26]: 240.8 rpm
- Log2 differential normalized TPM ratio compared to glucose (LBA1022 Arginase, COG E): −0.6
- Log2 differential normalized TPM ratio compared to lactose (LBA1022 Arginase, COG E): −0.8
- Transcripts per million (rpm) (LBA1022 Arginase, COG E): 175.5 rpm
- Log2 differential normalized TPM ratio compared to glucose (LBA1055 Mutator protein, COG F): −0.1
- Log2 differential normalized TPM ratio compared to lactose (LBA1055 Mutator protein, COG F): 0.3
- Log2 differential normalized TPM ratio compared to glucose [27]: 2.2
- Log2 differential normalized TPM ratio compared to lactose [27]: 0.9
- Transcripts per million (rpm) [27]: 167.6 rpm
- Log2 differential normalized TPM ratio compared to glucose [28]: 3.1
- Log2 differential normalized TPM ratio compared to lactose [28]: 2
- Transcripts per million (rpm) [28]: 94 rpm
- Log2 differential normalized TPM ratio compared to glucose [29]: 2.7
- Log2 differential normalized TPM ratio compared to lactose [29]: 0.1
- Transcripts per million (rpm) [29]: 39 rpm
- Log2 differential normalized TPM ratio compared to glucose [30]: 3.3
- Log2 differential normalized TPM ratio compared to lactose [30]: −0.1
- Transcripts per million (rpm) [30]: 36 rpm
